# Test results as given in ChEMBL document CHEMBL1125801, “Fluorinated colchicinoids: antitubulin and cytotoxic properties” (J Med Chem, 1991).
# Columns and labels:
# Assay type in all cases: functional
# Settings in all cases: read-out: ED50 (the source's name)
# [1] = system: P388; experiment: Cytotoxic activity against P388 mouse lymphocytic leukemia cell line
# [2] = system: J774; experiment: Cytotoxic activity against mouse macrophage cell line J7.COL-100.
# [3] = system: P388; experiment: Cytotoxic activity against P388 mouse lymphocytic leukemia cell line (doxorubicin resistant).
# [4] = system: J774; experiment: Cytotoxic activity against mouse macrophage cell line J7.VBL-1
# [5] = system: J774.2; experiment: Cytotoxic activity against mouse macrophage cell line J774.2
smiles,measurement,setting,value
COc1c(O)cc2c(c1OC)-c1ccc(SC)c(=O)cc1C(NC(=O)C(F)(F)F)CC2 (stereo not given),EC50,[1],6 nM
same,EC50,[2],4500 nM
same,EC50,[3],38 nM
same,EC50,[4],750 nM
same,EC50,[5],13 nM
